Laboratory results published in PubChem BioAssay AID504467 (National Center for Advancing Translational Sciences (NCATS), 2011).
In all, about 330,000 compounds went through this assay and about 7,700 (2.3%) were called active. This list was built around the results that the source calls inconclusive (neither active nor inactive); the mix of calls is not that of the screen. Calls come from the whole dose curve; as a rule, active = well fitted inhibition curve with a large enough effect; inconclusive = small, poorly fitted or top-dose-only effect, or effect the other way; inactive = flat fitted curve, though single readings scatter. Potencies beside an inconclusive call are fits to weak or partial responses and may not hold up.

test: qHTS screen for small molecules that inhibit ELG1-dependent DNA repair in human embryonic kidney (HEK293T) cells expressing luciferase-tagged ELG1; details: HEK293T ELG1-luciferase reporter, luminescence, 16 h, DNA damage induced by 5-fluorouridine; activity change, negative = inhibition: at 46.1 µM (top of the series); note: nearly all actives have a fitted effect of over 55% in size
How it was run: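 Luminescence from the luciferase reporter, measured 30 min after ONE-Glo reagent at room temperature, was the read-out. Beforehand, 2,000 cells per well were exposed for 16 hr at 37 °C to 5-fluorouridine together with compound or vehicle.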
% is set by controls: 0 for no effect and ±100 for the full control effect; potency is the fitted concentration of half-maximal effect.

| SMILES | activity change, negative = inhibition | Potency |
| --- | --- | --- |
| Cc1ccc2c(c1)c(=O)c1c3n2CCN(CC2CO2)C3CC1 (stereo not given) | inactive: -2.62% | – |
| COC(=O)C1=C(c2ccc(F)cc2OCc2ccccc2)C[C@@H]2CC[C@H]1N2C(=O)NC(C)C | inactive: -16.1% | – |
| Nc1nc2c(s1)CCCCCCCCCC2 | – | inconclusive: 18.3 µM [inhibitor, partial curve, poor fit] |
| Cn1cnc([N+](=O)[O-])c1Sc1ccc([N+](=O)[O-])cc1 | – | inconclusive: 18.3 µM [activator, partial curve] |
| Clc1ccc2c(c1)C(c1ccccc1Cl)=NCc1nnc(N3CCN(CCSc4ccccc4)CC3)n1-2 | inactive: 3.29% | – |
| O=c1c2ccccc2nc(/C=C\c2ccccc2[N+](=O)[O-])n1-c1ccccc1O | – | inconclusive: 16.4 µM [inhibitor, single point] |
| Cc1ccccc1-n1c(O)c(/C=C2/C(c3ccccc3)=Nc3ccccc32)c(=O)[nH]c1=O | – | inconclusive: 3.66 µM [inhibitor, partial curve, poor fit] |
| CCC(C)(C)n1nnnc1C(c1cccs1)N1CC=C(c2ccc(F)cc2)CC1 (stereo not given) | – | inconclusive: 29.1 µM [inhibitor, partial curve, poor fit] |
| C[C@]12CC[C@H](O)C[C@H]1CC[C@@H]1[C@@H]2C[C@@H](O)[C@]2(C)[C@@H](C3=CC(=O)OC3)CC[C@]12O | – | inconclusive: 1.41 µM [inhibitor, full curve, poor fit] |
| COc1ccc(CC(=O)Nc2ccc3c(C(F)(F)F)cc(=O)oc3c2)cc1OC | inactive: -18.4% | – |
| CC/C(=C\C=C\[C@@H]1C=C[C@@H]2CCC[C@H]2[C@@H]1C(=O)c1ccc[nH]1)[C@@H]1O[C@@H]([C@@H](C)C(=O)O)CC[C@@H]1C | inactive: -15.2% | – |
| FC(F)(F)c1ccccc1CNCCc1c[nH]c2ccccc12 | inactive: -29.7% | – |
| N#Cc1ccc(OCC(=O)N2CCN(Cc3ccc4c(c3)OCO4)CC2)cc1 | – | inconclusive: 20.6 µM [inhibitor, single point] |
| Cc1nc2ccccc2c(=O)n1-c1cccnc1 | inactive: 15.3% | – |
| COc1ccc(NC(=O)Cn2c3ccccc3c3nc4n(c(=O)c32)CCS4)cc1 | – | inconclusive: 29.1 µM [activator, single point] |
| Cc1cccc(N2C(=O)NC(=O)/C(=C\c3cnn(-c4ccccc4)c3)C2=O)c1 | – | inconclusive: 20.6 µM [activator, partial curve] |
| CC1CC(C)CN(CC(=O)c2ccc(OC(F)F)cc2)C1 (stereo not given) | – | inconclusive: 16.4 µM [activator, partial curve] |
| CC(Cc1ccccc1)NCCC(c1ccccc1)c1ccccc1 (stereo not given) | inactive: -13.5% | – |
| c1csc(-c2nnc(Cc3cccc4ccccc34)o2)c1 | – | inconclusive: 18.4 µM [activator, single point] |
| N#Cc1c(Cl)nc(Cl)c2c1CCN(Cc1ccccc1)C2 | inactive: 24% | – |
| O=C(CSC1c2ccccc2-c2ccccc21)N/N=C/c1ccccc1O | – | active: 3.66 µM |
| CCC(C)NC(=O)CCC(=O)OC1O[C@H]2OC3(C)CC[C@H]4[C@H](C)CCC(C1C)C24OO3 (stereo not given in full) | – | inconclusive: 0.82 µM [inhibitor, partial curve, poor fit] |
| CCOC(=O)C1=C(C)OC(N)=C(C(=O)OC)C12C(=O)Nc1ccc(Br)cc12 (stereo not given) | – | inconclusive: 1.16 µM [inhibitor, single point] |
| Cc1cc(C=C2C(=O)N(C)C(=O)N(C)C2=O)c(C)n1-c1ccccc1 | inactive: 3.57% | – |

| SMILES | activity change, negative = inhibition | Potency |
| --- | --- | --- |
| O=C(NC1CN2CCC1CC2)c1cc(Cl)c([N+](=O)[O-])c2nc[nH]c12 (stereo not given) | – | inconclusive: 29.1 µM [inhibitor, single point] |
| O=C(NN1C(=O)C2C3C=CC(C4CC34)C2C1=O)c1ccc(Br)cc1 (stereo not given) | – | inconclusive: 29.1 µM [inhibitor, single point] |
| CCn1cc(/C=c2/sc3n(c2=O)C2c4ccccc4OC(C)(N=3)C2C(=O)OC)c(C)n1 (stereo not given) | – | inconclusive: 23.1 µM [inhibitor, single point] |
| O=[N+]([O-])c1ccc(N2CCCC2)c2ncccc12 | inactive: 12.6% | – |
| CCCCCn1c(=O)c(C(=O)Nc2ccncc2)c(O)c2ccccc21 | – | inconclusive: 14.6 µM [inhibitor, partial curve] |
| COc1cc(OC)c(OC)cc1CNCCc1ccc2c(c1)OCO2 | inactive: -9.39% | – |
| O=c1c2ccccc2nc(CN2CCCCCC2)n1-c1ccc(F)cc1 | inactive: 0.29% | – |
| O=c1c2ccccc2nc(/C=C/c2ccc(O)c(O)c2)n1-c1ccccc1 | – | inconclusive: 13 µM [inhibitor, partial curve] |
| COC(=O)C1=C(c2ccc(-c3ccccc3)c(F)c2)C[C@@H]2CC[C@H]1N2C(=O)N1CCOCC1 | inactive: -3.58% | – |
| CCCNC(=O)N1[C@H]2CC[C@@H]1C(C(=O)OC)=C(c1ccc(Cl)c(C(F)(F)F)c1)C2 | inactive: -9.94% | – |
| COc1ccccc1[As](=O)(O)CC(O)COc1ccc(Cl)cc1Cl (stereo not given) | inactive: -1.6% | – |
| O=C(c1ccccc1F)N1C[C@H]2C[C@@H](C1)c1cccc(=O)n1C2 | inactive: -2.99% | – |
| O=C1NC(=O)N(c2ccccc2)C(=O)/C1=C\c1ccc([N+](=O)[O-])s1 | inactive: -1.43% | – |
| O=c1[nH]c(=O)n(-c2ccc(F)cc2)c(O)c1/C=C1\C=Nc2ccccc21 | inactive: -9.91% | – |
| CC(C)NS(=O)(=O)c1ccc(OCC(=O)N2CCN(Cc3ccccc3)CC2)c(Cl)c1 | inactive: -9.87% | – |
| CC1CCC(NC(=O)CNC(=S)N2CC3CC(C2)c2cccc(=O)n2C3)CC1 (stereo not given) | – | inconclusive: 11.6 µM [activator, partial curve] |
| FC(F)(F)c1ccc2c(c1)ncn2C1CCN(Cc2nnnn2C2CCCCC2)CC1 | – | inconclusive: 18.4 µM [inhibitor, single point] |
| C=CCOC(=O)COc1cc(C)cc2oc(=O)c3c(c12)CCC3 | – | inconclusive: 20.6 µM [activator, single point] |
| CCN1CCN(c2cc(N3CCCC3)c([N+](=O)[O-])cc2F)CC1 | inactive: -22.5% | – |
| CNCCc1ccc(OC)c(OC)c1 | inactive: 4.57% | – |
| Cc1ccc(O)c(C(=O)c2cc(C(=O)NCCC(C)C)c(=O)n(CCC(C)C)c2)c1 | – | inconclusive: 16.4 µM [inhibitor, single point] |
| Cc1cc(OCC(=O)N2CCC(C(=O)O)CC2)c2c3c(c(=O)oc2c1)CCCC3 | inactive: -28.9% | – |
| COc1ccc(C(CNC(=O)c2ccc3c(c2)CCC3)N(C)C)cc1 (stereo not given) | inactive: 13.4% | – |
| C[C@]12CC[C@@H](O)C[C@H]1CC[C@@H]1[C@@H]2CC[C@]2(C)C(=O)CC[C@@H]12 | inactive: -0.607% | – |

Complete entries from above.
C=CCOC(=O)COc1cc(C)cc2oc(=O)c3c(c12)CCC3 as listed: Potency: inconclusive: 20.6 µM [activator, single point]
Cc1ccc(O)c(C(=O)c2cc(C(=O)NCCC(C)C)c(=O)n(CCC(C)C)c2)c1 as listed: Potency: inconclusive: 16.4 µM [inhibitor, single point]
O=[N+]([O-])c1ccc(N2CCCC2)c2ncccc12 as listed: activity change, negative = inhibition: inactive: 12.6%
COC(=O)C1=C(c2ccc(-c3ccccc3)c(F)c2)C[C@@H]2CC[C@H]1N2C(=O)N1CCOCC1 as listed: activity change, negative = inhibition: inactive: -3.58%

Compounds above with a COOH group:

| SMILES | activity change, negative = inhibition | Potency |
| --- | --- | --- |
| CC/C(=C\C=C\[C@@H]1C=C[C@@H]2CCC[C@H]2[C@@H]1C(=O)c1ccc[nH]1)[C@@H]1O[C@@H]([C@@H](C)C(=O)O)CC[C@@H]1C | inactive: -15.2% | – |
| Cc1cc(OCC(=O)N2CCC(C(=O)O)CC2)c2c3c(c(=O)oc2c1)CCCC3 | inactive: -28.9% | – |

(continued)

| SMILES | activity change, negative = inhibition | Potency |
| --- | --- | --- |
| C=CCc1c(C)nc(C)nc1N/N=C/c1ccc(N(C)C)cc1 | – | inconclusive: 18.4 µM [inhibitor, partial curve] |
| Cc1cc(OC(C)C(=O)NCC2CCC(C(=O)O)CC2)c2c3c(c(=O)oc2c1)CCC3 (stereo not given) | – | inconclusive: 29.1 µM [activator, single point] |
| COc1ccc(CCn2c(O)c(/C=N/N3CCCCC3)c(=O)[nH]c2=O)cc1OC | – | inconclusive: 13 µM [inhibitor, partial curve] |
| C#CCN1C(=O)S/C(=C\c2ccc(N3CCOCC3)cc2C)C1=O | – | inconclusive: 6.51 µM [activator, partial curve] |
| COc1cccc(N2C(=O)NC(=O)C3(Cc4cc(C)ccc4N(C)C3)C2=O)c1 (stereo not given) | inactive: 1.66% | – |
| Cn1c(O)c(/C=N/N2CCOCC2)c(=O)[nH]c1=S | – | inconclusive: 13 µM [inhibitor, partial curve, poor fit] |
| Cc1c(Cl)cccc1NC(=S)N1CC2CC(C1)c1cccc(=O)n1C2 (stereo not given) | – | inconclusive: 18.4 µM [activator, single point] |
| C[C@]12CCC(=O)C=C1CC[C@@H]1C2CC[C@]2(C)C(=O)CCC12 (stereo not given in full) | inactive: -19.3% | – |
| Cn1c(=O)oc2cc(NC(=O)CCl)ccc21 | – | inconclusive: 29.1 µM [inhibitor, single point] |
| Cc1nc2ccc(Cl)cn2c1P(=S)(N1CCOCC1)N1CCOCC1 | inactive: 1% | – |
| COC(=O)C1=C(c2ccc(-c3ccccc3)c(F)c2)C[C@@H]2CC[C@H]1N2C(=O)NC1Cc2ccccc2C1 | inactive: -4.31% | – |
| Cn1ccnc1P(=S)(c1nccn1C)c1nccn1C | inactive: -15.8% | – |
| C[C@]12CCC3C(CCC4=C/C(=N/OCC(=O)NC(CCC(N)=O)C(=O)O)CC[C@@]43C)C1CCC2O (stereo not given in full) | – | inconclusive: 32.6 µM [activator, partial curve, poor fit] |
| CC(CCc1ccccc1)NCCC#N (stereo not given) | – | inconclusive: 29.1 µM [activator, single point] |
| COC(=O)C1=C(c2ccc(Cl)c(C(F)(F)F)c2)C[C@@H]2CC[C@H]1N2C(=O)NCCOc1ccc(OC)cc1 | – | inconclusive: 23.1 µM [inhibitor, single point] |
| CCCCCCC(=O)c1c(O)n(-c2ccc(OC)cc2)c(=O)[nH]c1=O (tested in a mixture with another compound) | – | inconclusive: 29.1 µM [inhibitor, single point] |
| C#CCOc1cc(C2C3=C(COC3=O)Nc3cc4c(cc32)OCO4)ccc1OC (stereo not given) | – | inconclusive: 0.461 µM [inhibitor, full curve, poor fit] |
| O=C1NC(=O)C(=Cc2ccc(SC3CCCCC3)o2)C(=O)N1 | – | inconclusive: 20.6 µM [activator, single point] |
| CCOc1ccc(Oc2nc(NCC(C)C)nc(N(C)C)n2)nn1 | – | inconclusive: 18.4 µM [activator, single point] |
| COc1ccc(-n2c(-c3ccco3)nc3ccccc3c2=O)cc1 | inactive: -9.09% | – |
| COC(=O)CSC1=NN1c1cc(C)nc(N)n1 | inactive: 5.59% | – |
| O=C(Nc1c(F)cc(F)cc1F)c1cccn(Cc2ccccc2)c1=O | – | inconclusive: 29.1 µM [inhibitor, single point] |
